Results are given in words; binding and its absence hold for the method and conditions named. In cells and extracts the contact can be indirect. Some entries that bind do so weakly or less than the wild type.

Protein sequences, listed by entry. Tags and fused reporters are not part of them. Residues count along the entry.
UniProt P11021, residues 19-654: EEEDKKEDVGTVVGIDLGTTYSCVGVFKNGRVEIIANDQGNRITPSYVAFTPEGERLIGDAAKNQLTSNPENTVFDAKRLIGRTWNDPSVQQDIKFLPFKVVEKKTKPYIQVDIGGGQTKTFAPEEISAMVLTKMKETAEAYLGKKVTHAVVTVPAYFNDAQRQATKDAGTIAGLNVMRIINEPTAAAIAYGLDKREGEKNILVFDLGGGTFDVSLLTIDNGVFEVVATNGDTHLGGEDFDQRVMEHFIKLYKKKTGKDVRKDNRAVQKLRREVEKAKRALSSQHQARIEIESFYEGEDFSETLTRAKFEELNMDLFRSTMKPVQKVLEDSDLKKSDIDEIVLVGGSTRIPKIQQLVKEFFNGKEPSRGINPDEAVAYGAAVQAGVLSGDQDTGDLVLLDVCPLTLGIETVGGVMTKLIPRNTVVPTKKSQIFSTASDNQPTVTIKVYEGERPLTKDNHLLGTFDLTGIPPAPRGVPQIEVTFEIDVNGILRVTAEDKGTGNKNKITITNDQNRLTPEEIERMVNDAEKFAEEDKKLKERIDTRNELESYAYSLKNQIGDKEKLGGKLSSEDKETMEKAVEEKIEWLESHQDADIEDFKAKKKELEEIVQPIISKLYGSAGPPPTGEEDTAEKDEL

The assay concerns the target GRP78 (78-kDa glucose-regulated protein) (human (endogenous in human ESCC cell lines)) (UniProt P11021). Description: co-IP; IP assays with western blot in ESCC cells (KYSE-30 with or without lnc191 knockdown in Figure 7B); which protein was precipitated is not told.

Regarding “EGFR (from UniProt P00533 25-1210) (receptor)”, the binding entry is on record as “binds”.
